Data taken from article doi:10.1101/271270.

By UniProt entry, the sequences of proteins in these tests, tags left out. Where a name states a change or a piece, a line headed by the entry shows the natural chain unless it says otherwise.
UniProt G5EE53: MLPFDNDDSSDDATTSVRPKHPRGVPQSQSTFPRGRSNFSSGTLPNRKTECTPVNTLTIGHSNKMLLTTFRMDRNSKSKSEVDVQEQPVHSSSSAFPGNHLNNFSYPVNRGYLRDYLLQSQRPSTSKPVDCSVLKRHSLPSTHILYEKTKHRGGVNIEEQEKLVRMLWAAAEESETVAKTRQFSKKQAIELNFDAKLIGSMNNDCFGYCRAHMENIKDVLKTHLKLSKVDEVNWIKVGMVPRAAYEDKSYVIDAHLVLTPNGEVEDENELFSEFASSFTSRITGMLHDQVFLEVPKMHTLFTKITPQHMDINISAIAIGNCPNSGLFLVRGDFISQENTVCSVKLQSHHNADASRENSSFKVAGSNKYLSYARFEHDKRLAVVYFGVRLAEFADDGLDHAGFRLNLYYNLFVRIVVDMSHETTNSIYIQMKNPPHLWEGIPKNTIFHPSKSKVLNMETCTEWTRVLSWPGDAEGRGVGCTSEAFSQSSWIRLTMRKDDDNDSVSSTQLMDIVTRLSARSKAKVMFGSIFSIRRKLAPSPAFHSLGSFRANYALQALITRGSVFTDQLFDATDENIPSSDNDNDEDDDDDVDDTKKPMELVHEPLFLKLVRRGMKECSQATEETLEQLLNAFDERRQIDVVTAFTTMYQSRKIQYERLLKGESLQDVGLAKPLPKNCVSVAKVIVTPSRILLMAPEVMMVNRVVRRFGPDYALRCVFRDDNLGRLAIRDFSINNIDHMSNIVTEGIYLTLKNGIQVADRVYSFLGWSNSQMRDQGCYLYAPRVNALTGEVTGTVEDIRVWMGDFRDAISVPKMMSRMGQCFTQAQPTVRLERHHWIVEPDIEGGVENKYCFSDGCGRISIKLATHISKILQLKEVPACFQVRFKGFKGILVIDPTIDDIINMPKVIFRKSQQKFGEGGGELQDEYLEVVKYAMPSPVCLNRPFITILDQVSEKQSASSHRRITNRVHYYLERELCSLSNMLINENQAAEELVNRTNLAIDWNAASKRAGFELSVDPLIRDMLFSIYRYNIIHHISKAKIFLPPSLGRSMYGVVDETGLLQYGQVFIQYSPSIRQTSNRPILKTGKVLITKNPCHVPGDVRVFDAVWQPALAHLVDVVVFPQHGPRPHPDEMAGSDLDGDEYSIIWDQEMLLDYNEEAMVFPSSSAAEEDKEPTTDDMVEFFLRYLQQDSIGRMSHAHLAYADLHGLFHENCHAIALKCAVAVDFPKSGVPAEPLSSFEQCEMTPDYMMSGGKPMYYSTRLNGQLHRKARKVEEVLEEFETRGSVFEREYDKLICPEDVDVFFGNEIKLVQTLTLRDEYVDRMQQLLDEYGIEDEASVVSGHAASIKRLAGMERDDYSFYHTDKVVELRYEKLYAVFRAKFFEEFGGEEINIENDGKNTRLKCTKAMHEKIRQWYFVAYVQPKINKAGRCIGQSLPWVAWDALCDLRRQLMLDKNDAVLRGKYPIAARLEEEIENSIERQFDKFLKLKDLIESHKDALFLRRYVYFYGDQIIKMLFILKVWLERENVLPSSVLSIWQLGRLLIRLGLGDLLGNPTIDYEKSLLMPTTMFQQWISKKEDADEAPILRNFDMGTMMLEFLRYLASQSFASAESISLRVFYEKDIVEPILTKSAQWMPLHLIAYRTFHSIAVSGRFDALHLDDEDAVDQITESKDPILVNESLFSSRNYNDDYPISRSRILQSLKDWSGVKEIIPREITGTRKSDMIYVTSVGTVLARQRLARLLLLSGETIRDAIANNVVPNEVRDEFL

Target: 3xFLAG∷RRF-3 (C. elegans) (UniProt G5EE53)
Assay: SEC

binding: binds
Substance: GTSF-1 (T06A10.3), endogenous (from UniProt A3QMD6)

No constants are given. Whether binding was seen depends on the method and setting. Binding calls can cover weak binding; strength is not graded here.
